This passage reports log2 fold change results from the supplement of paper PMC12819154, “High-throughput peptide-centric local stability assay extends protein–ligand identification to membrane proteins, tissues and bacteria” (Nature Structural & Molecular Biology, 2025).

Protein sequences, listed by entry. Tags and fused reporters are not part of them. Lines headed by an entry give the natural chain unless they say otherwise; changes in a name come on top.
UniProt Q91VI7: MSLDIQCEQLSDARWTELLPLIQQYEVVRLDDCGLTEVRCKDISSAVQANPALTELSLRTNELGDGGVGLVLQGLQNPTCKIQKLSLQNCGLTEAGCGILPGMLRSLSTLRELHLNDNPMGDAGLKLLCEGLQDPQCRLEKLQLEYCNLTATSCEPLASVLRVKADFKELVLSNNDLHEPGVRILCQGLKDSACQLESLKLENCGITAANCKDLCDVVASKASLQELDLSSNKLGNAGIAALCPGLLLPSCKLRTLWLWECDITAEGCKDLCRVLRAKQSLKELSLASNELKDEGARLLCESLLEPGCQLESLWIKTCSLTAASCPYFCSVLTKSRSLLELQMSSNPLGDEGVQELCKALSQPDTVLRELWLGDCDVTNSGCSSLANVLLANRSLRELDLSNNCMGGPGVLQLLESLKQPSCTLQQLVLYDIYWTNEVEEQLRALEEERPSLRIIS
UniProt Q91WE2: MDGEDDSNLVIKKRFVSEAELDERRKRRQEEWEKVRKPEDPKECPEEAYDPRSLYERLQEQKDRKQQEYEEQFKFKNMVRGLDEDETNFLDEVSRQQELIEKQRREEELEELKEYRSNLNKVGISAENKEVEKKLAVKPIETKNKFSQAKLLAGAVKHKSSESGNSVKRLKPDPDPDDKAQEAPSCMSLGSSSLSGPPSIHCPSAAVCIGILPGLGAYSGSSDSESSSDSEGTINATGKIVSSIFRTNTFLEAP
UniProt Q91YR1, whole entry: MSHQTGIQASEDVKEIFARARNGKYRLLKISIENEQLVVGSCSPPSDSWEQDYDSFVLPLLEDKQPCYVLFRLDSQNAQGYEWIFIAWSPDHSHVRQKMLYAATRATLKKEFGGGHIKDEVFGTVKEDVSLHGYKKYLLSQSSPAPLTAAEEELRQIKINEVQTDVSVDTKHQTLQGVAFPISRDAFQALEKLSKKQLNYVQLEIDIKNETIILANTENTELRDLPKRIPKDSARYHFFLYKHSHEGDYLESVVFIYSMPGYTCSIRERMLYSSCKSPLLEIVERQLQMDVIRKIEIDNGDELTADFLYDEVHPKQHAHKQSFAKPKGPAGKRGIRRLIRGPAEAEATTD
UniProt Q91YL3: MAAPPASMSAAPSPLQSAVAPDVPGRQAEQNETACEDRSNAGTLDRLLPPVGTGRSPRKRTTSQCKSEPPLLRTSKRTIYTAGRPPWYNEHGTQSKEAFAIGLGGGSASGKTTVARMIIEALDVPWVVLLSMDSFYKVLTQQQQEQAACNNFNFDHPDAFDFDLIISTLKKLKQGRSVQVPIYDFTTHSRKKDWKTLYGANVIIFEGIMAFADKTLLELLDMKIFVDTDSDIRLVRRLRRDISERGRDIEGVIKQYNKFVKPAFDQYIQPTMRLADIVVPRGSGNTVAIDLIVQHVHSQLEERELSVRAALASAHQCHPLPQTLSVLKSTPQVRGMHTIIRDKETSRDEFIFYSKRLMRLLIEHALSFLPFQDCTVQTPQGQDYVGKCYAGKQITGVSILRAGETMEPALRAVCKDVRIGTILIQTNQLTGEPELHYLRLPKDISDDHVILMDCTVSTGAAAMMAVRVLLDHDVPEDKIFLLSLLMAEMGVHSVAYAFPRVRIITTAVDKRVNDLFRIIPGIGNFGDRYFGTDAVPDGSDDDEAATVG
UniProt Q91X34: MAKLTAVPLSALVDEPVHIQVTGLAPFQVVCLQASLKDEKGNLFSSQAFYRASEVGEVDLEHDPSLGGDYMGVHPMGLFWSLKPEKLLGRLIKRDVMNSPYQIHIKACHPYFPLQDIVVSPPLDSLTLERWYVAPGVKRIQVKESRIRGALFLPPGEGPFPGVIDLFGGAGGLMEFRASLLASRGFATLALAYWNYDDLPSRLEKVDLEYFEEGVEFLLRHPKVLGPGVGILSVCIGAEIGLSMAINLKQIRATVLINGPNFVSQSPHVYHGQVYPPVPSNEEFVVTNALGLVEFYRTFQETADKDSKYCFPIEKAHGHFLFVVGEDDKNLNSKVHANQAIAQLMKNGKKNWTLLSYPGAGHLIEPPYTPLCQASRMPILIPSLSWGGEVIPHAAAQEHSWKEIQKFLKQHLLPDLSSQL
UniProt Q91WG3: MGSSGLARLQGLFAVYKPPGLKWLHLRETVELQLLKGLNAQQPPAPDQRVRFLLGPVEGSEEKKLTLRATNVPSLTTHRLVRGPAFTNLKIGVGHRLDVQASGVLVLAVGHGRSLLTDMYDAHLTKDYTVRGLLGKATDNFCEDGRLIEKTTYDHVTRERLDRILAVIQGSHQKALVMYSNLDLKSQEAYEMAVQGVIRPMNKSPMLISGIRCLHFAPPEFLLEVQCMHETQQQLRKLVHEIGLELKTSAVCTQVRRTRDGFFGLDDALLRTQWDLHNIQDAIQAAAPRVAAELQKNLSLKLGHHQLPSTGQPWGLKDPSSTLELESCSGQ
UniProt Q91XD4: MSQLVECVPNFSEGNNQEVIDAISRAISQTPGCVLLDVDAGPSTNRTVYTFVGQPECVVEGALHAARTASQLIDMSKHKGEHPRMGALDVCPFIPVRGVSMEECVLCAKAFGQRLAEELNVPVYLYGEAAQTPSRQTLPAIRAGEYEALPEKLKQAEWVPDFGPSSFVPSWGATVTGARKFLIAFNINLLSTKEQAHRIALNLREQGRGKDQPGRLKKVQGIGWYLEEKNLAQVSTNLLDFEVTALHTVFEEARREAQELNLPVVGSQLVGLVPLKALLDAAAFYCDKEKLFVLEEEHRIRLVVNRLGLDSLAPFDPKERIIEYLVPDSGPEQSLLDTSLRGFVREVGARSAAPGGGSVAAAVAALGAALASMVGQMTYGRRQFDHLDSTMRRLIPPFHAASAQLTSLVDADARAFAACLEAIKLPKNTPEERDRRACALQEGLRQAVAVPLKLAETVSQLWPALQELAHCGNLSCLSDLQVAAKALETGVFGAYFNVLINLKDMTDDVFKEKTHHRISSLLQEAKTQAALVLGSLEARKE
UniProt Q91V64: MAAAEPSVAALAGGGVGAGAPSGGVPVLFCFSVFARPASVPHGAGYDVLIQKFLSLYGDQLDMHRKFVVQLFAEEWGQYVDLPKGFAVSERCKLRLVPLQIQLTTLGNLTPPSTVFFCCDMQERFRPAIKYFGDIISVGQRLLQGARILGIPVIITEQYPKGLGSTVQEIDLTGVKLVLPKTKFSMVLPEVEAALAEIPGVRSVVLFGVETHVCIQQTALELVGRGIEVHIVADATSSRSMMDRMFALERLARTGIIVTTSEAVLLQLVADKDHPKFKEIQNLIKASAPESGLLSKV
UniProt Q91VW9: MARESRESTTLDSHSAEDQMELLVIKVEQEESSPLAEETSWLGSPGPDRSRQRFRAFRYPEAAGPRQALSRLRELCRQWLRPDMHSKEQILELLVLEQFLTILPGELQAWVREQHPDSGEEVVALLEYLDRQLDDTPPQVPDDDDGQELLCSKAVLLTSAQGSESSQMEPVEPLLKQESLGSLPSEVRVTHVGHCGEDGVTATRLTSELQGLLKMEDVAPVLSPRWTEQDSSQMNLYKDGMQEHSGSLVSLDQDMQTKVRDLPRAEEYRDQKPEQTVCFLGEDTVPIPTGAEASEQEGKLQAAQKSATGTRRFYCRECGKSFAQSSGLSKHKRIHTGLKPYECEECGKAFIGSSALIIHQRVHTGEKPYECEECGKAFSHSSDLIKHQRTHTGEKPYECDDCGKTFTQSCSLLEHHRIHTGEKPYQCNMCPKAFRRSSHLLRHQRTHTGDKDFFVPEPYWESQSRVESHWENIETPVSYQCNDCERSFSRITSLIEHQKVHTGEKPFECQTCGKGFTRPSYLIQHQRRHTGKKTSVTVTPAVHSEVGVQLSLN
UniProt Q8VHF2: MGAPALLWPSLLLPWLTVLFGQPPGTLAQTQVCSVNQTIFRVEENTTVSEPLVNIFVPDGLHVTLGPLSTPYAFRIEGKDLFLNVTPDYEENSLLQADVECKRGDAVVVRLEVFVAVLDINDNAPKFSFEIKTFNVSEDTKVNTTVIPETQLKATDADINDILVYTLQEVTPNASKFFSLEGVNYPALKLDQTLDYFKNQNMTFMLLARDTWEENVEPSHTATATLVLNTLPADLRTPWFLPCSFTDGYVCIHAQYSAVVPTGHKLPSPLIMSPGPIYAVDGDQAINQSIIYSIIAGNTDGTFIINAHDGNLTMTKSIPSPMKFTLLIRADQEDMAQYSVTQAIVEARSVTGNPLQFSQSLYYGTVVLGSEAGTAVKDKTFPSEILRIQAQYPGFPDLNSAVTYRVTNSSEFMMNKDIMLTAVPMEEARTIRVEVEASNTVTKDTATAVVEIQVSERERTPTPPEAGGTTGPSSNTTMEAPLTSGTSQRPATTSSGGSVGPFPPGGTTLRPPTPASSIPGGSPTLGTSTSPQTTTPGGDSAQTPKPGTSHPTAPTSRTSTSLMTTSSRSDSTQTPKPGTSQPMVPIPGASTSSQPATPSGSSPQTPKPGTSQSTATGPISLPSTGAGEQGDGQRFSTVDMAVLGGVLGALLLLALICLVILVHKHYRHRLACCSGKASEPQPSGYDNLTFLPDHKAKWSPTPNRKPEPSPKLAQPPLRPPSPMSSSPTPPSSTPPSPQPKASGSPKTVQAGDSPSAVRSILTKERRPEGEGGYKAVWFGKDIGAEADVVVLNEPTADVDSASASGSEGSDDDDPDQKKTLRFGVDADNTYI
UniProt Q91WJ8: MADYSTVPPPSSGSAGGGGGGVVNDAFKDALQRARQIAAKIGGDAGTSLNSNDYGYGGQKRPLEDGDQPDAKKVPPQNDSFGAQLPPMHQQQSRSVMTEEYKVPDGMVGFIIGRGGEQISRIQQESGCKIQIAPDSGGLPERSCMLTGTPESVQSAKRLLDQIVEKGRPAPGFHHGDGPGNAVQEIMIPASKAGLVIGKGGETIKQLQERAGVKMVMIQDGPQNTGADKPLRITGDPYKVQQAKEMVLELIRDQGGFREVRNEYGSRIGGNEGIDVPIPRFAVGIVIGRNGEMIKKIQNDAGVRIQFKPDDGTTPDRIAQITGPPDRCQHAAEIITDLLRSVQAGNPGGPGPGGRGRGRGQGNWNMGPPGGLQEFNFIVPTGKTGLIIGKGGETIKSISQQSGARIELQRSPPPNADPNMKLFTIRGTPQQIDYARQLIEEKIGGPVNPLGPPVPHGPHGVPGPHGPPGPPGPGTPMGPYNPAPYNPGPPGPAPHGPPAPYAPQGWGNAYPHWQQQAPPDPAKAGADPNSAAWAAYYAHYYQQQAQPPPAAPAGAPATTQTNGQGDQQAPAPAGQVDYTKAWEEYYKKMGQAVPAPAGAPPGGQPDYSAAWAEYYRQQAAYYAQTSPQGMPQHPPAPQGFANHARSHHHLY

Some of the results follow. Small differences around the control level are noise.

Compound in this assay: CN[C@@H]1C[C@H]2O[C@@](C)([C@@H]1OC)n1c3ccccc3c3c4c(c5c6ccccc6n2c5c31)C(=O)NC4 [staurosporine]
Kind of assay: log2 fold change of tryptic peptide abundance, ligand vs vehicle (limited proteolysis) (log2 ratio); higher = more trypsin-susceptible (destabilized). Particulars: ligand concentration: 20 uM; sample: mouse liver crude lysate; replicate design: treated separately.

Consider “UniProt Q91VI7 (peptide sequence: ALEEERPSLR, peptide start residue: 444)”, for which the log2 fold change is 0.182.
Take “UniProt Q91WE2 (peptide sequence: EEELEELK, peptide start residue: 106)”: the log2 fold change was -0.323.
Under “UniProt Q91YR1 (peptide sequence: DAFQALEK, peptide start residue: 185)” stands -0.311.
Under “UniProt Q91YL3 (peptide sequence: IFVDTDSDIR, peptide start residue: 224)” stands 0.233.
Next, “UniProt Q91X34 (peptide sequence: GNLFSSQAFYR, peptide start residue: 41)”: -0.298.
In the case of “UniProt Q91WG3 (peptide sequence: ATNVPSLTTHR, peptide start residue: 69)”, the log2 fold change stood at 0.229.
Under “UniProt Q91XD4 (peptide sequence: RLIPPFHAASAQLTSLVDADAR, peptide start residue: 393)” stands 0.193; under “UniProt Q91V64 (peptide sequence: FKEIQNLIK, peptide start residue: 277)”, 0.125; under “UniProt Q91VW9 (peptide sequence: TFTQSCSLLEHHR, peptide start residue: 405)”, -0.26.
Regarding “UniProt Q8VHF2 (peptide sequence: TVQAGDSPSAVR, peptide start residue: 747)”, the log2 fold change was 0.0708.
As for “UniProt Q91WJ8 (peptide sequence: SPPPNADPNMK, peptide start residue: 411)”, the log2 fold change stood at 0.555.
